No constants are given. Whether binding was seen depends on the method and setting. A result given as binding can be weak or reduced; the word gives no strength.
Biological target: PPARγ ligand-binding domain (human)
Assay: AlphaScreen or HTRF; approximately 20–40 nM PPAR LBDs on nickel chelate acceptor beads, 20 nM biotinylated co-factor peptides on streptavidin donor beads; 50 mM MOPS, 50 mM NaF, 0.05 mM CHAPS, 0.1 mg/mL BSA, pH 7.4; in response to 1 μM sanguinarine; both purified

For PDAASKHKQLSELLRGGSG (biotin on the N-terminus) [biotinylated SRC3-3 co-activator LXXLL motif peptide], the binding was “binds”.
